Where two headings read alike, the source gives them in different places. Results are given in words; binding and its absence hold for the method and conditions named. A result given as binding can be weak or reduced; the word gives no strength. For some of these results: Binding seen in cells or lysates may run through a third protein.

The results in this text go back to publication doi:10.1101/2020.05.07.083568.

Assay [1] has as its target His-TbUnc119 (Trypanosoma brucei) (UniProt Q586Q9). The experiment in a line: pull-down.
In assay [2] the target is GST-TbArl3A (Trypanosoma brucei) (UniProt Q57XJ5). The experiment in a line: pull-down.
Assay [3] shares this target. The assay is described as follows: pull-down. This is another data set of the same source.
Assay [4] addresses GFP-TbUnc119 (Trypanosoma brucei) (UniProt Q586Q9). The experiment in a line: co-IP.

Take GST-TbArl3A (from UniProt Q57XJ5): in assay [1], the binding entry is listed as “binds”.

Regarding His-TbUnc119 (from UniProt Q586Q9), the binding entry in assay [2] and in assay [3] was “binds” each time.

B1: TbSMP1-1-BB2 (protein, UniProt Q4GYZ8 1-123)
chain: MGCGGSKTSTVEFINGQPTVQGDEIVKGFNEGNGLLFRIVKTRAGRWAYYNDTLDYDMHVKVTFSEDCRIKALGQTRLEKLESGESVATVVVKPCATELFIEGHVNGYKAKMDAIPITDGDRQ
modifications: N-terminal myristoylation site (G2)
As for B1, the binding result in assay [4] is reported as “binds”.
